Our source for the binding values is patent US20200164046A1.

Amino acid sequences for entries named in this document (tags omitted).
UniProt P31749: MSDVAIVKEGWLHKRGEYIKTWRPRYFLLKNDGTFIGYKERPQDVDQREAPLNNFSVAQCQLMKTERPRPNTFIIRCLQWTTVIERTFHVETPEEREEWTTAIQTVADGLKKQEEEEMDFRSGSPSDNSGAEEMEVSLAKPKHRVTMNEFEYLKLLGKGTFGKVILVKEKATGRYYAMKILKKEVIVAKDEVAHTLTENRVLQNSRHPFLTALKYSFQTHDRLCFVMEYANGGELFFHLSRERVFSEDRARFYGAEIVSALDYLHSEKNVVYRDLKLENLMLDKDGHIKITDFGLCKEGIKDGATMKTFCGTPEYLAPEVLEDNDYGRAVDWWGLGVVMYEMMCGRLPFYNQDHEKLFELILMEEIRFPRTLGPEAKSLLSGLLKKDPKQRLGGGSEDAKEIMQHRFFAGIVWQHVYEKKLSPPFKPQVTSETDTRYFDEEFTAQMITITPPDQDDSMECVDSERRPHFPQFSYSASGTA

No constants are given. Whether binding was seen depends on the method and setting. In cells and extracts the contact can be indirect. Some entries that bind do so weakly or less than the wild type. Tags and fused reporters may be left off the sequences shown.

For experiment [1], the target named is Akt1 (endogenous, in lysates of human Caco-2 or SW620 colon cancer cells) (human) (UniProt P31749). Briefly: GST pull-down of Akt1 from cell lysate by GST-FAK truncations on beads, western blot. For orientation: In western blotting, separated proteins are transferred to a membrane and probed.
For experiment [2] the target is unchanged. Put plainly: GST pull-down from cell lysate, western blot for Akt1.
Another experiment addresses purified Akt1 (Origene) (UniProt P31749). Put plainly: GST pull-down of purified Akt1, western blot for Akt1.

B1: GST-FAK-NT1-2 (FAK residues 61-126) (protein, not shown: a dimerising Fc or GST)
chain: ATDVRGIIQKIVDSHKVKNVACYGFRLSHLRSEEVHWLHVDMGVSSVREKYELAHPPEEWKYELRI
B1: in experiment [1], the binding entry was “binds”.

B2: GST-FAK-NT1 (FAK residues 1-126) (protein, not shown: a dimerising Fc or GST)
chain: MAAAYLDPNLNHTPNSSTKTHLGTGMERSPGAMERVLKVFHYFESNSEPTTWASIIRHGDATDVRGIIQKIVDSHKVKNVACYGFRLSHLRSEEVHWLHVDMGVSSVREKYELAHPPEEWKYELRI
As for B2, the binding entry (in experiment [2]; in the experiment with purified Akt1 (Origene); in experiment [1]) was “binds” each time.
